In publication PMC4346919:
Results are given in words; binding and its absence hold for the method and conditions named. Some binding calls cover weakened binding; strength is not graded here. Sequences can lack the tags named with a protein.

By UniProt entry, the sequences of proteins in these tests, tags left out. Where a name states a change or a piece, a line headed by the entry shows the natural chain unless it says otherwise.
UniProt Q9NRY6: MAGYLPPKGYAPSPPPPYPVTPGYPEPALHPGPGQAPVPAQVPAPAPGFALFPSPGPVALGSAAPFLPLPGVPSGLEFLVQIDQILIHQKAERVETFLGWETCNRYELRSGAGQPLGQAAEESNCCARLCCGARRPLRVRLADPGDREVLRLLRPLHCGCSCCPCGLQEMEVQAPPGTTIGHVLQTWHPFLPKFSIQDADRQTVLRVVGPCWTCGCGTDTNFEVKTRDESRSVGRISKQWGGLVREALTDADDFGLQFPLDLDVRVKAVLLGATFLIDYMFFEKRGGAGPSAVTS
UniProt O75340: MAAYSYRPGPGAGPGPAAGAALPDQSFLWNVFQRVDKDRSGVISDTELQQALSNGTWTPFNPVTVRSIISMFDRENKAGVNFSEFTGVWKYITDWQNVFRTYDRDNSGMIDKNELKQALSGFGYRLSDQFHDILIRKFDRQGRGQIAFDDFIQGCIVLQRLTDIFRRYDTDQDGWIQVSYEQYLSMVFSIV

How the values were obtained:
Test in all cases: far-Western, overlay or dot blot; purified GST-fused peptides resolved by SDS-PAGE, transferred to PVDF membranes and probed with biotin-labeled ALG-2; chemiluminescence, quantified with ImageJ; both purified
[1] = biological target: T1, GST-fused Sec31A 8-residue peptide P3A (human)
T1 sequence: NPAPPGFI

[2] = biological target: T2, GST-fused Sec31A 8-residue peptide F7A (human)
T2 sequence: NPPPPGAI

[3] = biological target: T3, GST-fused PLSCR3 peptide, 12 aa (43–54) (UniProt Q9NRY6)
T3 sequence: PAPAPGFALFPS

[4] = biological target: T4, GST-fused Sec31A 8-residue peptide G6L (human)
T4 sequence: NPPPPLFI

[5] = biological target: T5, GST-fused Sec31A 8-residue peptide I8A (human)
T5 sequence: NPPPPGFA

With “biotin-labeled ALG-2 (from UniProt O75340 1-191)” the binding [1] was “binds weakly”, the binding [2] was “binds weakly” and the binding [3] was “binds”. The binding [4] was “binds weakly” and the binding [5] was “binds weakly”.
